Results are given in words; binding and its absence hold for the method and conditions named. In cells and extracts the contact can be indirect. A result given as binding can be weak or reduced; the word gives no strength.
Target: RUFY4 ΔFYVE deletion mutant (mouse)
Experiment: co-IP; HEK293T cells transfected to co-express the indicated proteins; lysed in RIPA buffer; lysates incubated with primary antibodies overnight, then protein A-agarose 1 h at 4 °C; immunoblot

B1: LAMP2, expressed in HEK293T cells (protein, UniProt P17047 26-415)
chain: LIVNLTDSKGTCLYAEWEMNFTITYETTNQTNKTITIAVPDKATHDGSSCGDDRNSAKIMIQFGFAVSWAVNFTKEASHYSIHDIVLSYNTSDSTVFPGAVAKGVHTVKNPENFKVPLDVIFKCNSVLTYNLTPVVQKYWGIHLQAFVQNGTVSKNEQVCEEDQTPTTVAPIIHTTAPSTTTTLTPTSTPTPTPTPTPTVGNYSIRNGNTTCLLATMGLQLNITEEKVPFIFNINPATTNFTGSCQPQSAQLRLNNSQIKYLDFIFAVKNEKRFYLKEVNVYMYLANGSAFNISNKNLSFWDAPLGSSYMCNKEQVLSVSRAFQINTFNLKVQPFNVTKGQYSTAQDCSADEDNFLVPIAVGAALGGVLILVLLAYFIGLKRHHTGYEQF
For B1, the binding was “binds”.

Reference: PMC11094054
